# Test results taken from the supplement of paper PMC10849652.
# Chains of the proteins cited; added tags and fusions are not shown. Lines headed by an entry give the natural chain unless they say otherwise; changes in a name come on top.
# UniProt Q5JSZ5: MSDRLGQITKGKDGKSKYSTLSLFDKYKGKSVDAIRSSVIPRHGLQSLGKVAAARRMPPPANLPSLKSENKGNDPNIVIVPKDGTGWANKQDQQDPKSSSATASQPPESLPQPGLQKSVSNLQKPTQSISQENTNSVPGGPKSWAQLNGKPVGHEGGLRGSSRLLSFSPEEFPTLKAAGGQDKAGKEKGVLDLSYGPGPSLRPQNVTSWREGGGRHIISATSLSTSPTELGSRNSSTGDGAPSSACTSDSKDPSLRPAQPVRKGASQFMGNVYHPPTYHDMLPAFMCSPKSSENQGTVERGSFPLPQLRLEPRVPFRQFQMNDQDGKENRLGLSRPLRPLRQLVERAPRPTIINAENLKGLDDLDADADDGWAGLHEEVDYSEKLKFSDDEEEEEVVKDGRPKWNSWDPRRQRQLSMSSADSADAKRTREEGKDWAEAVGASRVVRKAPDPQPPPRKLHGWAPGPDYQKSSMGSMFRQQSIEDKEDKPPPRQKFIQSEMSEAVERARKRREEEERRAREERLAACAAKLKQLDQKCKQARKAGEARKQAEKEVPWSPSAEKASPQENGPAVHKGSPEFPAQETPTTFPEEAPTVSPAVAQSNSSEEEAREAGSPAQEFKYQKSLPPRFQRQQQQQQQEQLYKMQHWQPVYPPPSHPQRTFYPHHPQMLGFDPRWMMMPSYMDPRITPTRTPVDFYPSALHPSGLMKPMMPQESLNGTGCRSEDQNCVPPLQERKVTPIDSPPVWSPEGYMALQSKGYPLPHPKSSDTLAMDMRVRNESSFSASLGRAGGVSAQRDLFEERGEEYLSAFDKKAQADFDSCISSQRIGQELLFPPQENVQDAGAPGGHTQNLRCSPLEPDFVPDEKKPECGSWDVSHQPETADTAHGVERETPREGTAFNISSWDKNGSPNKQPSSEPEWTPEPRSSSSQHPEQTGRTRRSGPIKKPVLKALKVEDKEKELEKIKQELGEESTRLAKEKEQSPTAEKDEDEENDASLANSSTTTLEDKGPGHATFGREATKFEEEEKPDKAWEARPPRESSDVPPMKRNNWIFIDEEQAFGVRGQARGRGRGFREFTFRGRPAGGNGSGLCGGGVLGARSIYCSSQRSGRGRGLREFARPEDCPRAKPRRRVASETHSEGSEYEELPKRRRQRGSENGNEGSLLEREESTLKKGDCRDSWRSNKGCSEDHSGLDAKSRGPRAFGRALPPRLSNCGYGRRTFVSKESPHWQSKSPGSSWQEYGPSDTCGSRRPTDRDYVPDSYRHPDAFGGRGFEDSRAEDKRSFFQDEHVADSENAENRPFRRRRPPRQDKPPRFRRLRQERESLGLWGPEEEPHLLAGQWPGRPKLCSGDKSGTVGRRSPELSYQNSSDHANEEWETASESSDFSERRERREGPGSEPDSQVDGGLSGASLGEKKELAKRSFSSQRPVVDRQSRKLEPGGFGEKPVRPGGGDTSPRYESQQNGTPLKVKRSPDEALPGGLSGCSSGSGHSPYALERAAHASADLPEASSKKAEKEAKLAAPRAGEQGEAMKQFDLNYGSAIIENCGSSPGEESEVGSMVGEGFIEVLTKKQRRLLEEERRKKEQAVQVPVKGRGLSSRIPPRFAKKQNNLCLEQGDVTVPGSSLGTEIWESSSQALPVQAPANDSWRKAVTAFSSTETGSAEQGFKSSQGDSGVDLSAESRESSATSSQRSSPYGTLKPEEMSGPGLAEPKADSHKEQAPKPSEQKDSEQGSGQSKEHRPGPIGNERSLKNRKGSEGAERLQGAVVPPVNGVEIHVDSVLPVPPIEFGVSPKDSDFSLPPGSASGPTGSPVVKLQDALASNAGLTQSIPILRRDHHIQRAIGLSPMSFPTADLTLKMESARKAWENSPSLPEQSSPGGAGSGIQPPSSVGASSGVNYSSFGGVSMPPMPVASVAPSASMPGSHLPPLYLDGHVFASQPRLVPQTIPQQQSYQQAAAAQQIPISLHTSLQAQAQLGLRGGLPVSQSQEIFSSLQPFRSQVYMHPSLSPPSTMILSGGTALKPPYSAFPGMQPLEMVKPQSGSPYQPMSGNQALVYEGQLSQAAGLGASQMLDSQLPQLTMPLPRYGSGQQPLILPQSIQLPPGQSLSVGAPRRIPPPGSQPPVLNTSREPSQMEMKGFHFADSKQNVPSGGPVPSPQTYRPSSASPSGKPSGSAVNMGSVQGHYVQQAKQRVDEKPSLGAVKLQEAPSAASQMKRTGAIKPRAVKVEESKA
# UniProt O60828: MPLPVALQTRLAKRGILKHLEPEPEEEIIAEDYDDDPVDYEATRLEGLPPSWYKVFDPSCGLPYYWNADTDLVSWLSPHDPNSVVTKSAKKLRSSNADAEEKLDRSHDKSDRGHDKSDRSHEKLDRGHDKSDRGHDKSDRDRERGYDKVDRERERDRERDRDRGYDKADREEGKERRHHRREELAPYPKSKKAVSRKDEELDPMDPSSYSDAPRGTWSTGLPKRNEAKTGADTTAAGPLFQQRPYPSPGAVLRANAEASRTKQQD
# UniProt Q9Y6M0: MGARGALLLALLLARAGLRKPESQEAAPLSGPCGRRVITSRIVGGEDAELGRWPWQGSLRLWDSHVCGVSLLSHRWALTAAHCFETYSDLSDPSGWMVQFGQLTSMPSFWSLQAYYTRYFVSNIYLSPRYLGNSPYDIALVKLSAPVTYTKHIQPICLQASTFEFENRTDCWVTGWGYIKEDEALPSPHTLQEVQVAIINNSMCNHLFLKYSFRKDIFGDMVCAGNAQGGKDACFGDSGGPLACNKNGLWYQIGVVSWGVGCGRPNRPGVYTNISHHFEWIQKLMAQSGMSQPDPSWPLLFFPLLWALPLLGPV
# UniProt Q9NVM4: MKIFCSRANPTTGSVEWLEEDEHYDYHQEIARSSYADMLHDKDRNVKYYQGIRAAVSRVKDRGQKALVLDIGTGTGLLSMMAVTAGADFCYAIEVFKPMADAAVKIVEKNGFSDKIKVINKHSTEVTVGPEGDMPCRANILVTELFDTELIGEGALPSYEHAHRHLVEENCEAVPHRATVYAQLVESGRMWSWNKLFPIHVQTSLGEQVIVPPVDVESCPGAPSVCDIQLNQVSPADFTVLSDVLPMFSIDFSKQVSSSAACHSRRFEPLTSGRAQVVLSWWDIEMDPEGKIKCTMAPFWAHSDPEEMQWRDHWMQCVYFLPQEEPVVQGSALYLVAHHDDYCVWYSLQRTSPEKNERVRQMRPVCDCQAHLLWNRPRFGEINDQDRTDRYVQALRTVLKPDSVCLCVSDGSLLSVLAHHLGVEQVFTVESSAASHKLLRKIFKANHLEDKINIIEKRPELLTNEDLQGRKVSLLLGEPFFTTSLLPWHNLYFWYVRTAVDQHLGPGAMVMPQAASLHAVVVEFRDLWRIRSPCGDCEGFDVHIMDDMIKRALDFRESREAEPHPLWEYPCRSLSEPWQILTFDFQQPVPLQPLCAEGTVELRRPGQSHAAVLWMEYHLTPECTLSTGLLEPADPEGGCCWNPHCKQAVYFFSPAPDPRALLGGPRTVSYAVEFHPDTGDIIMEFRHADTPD
# UniProt Q8TAE6: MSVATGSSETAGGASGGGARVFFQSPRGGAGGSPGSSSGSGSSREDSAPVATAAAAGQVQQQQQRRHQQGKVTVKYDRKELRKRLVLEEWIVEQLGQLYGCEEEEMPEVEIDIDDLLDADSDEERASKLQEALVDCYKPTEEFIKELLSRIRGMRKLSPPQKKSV
# UniProt P48634: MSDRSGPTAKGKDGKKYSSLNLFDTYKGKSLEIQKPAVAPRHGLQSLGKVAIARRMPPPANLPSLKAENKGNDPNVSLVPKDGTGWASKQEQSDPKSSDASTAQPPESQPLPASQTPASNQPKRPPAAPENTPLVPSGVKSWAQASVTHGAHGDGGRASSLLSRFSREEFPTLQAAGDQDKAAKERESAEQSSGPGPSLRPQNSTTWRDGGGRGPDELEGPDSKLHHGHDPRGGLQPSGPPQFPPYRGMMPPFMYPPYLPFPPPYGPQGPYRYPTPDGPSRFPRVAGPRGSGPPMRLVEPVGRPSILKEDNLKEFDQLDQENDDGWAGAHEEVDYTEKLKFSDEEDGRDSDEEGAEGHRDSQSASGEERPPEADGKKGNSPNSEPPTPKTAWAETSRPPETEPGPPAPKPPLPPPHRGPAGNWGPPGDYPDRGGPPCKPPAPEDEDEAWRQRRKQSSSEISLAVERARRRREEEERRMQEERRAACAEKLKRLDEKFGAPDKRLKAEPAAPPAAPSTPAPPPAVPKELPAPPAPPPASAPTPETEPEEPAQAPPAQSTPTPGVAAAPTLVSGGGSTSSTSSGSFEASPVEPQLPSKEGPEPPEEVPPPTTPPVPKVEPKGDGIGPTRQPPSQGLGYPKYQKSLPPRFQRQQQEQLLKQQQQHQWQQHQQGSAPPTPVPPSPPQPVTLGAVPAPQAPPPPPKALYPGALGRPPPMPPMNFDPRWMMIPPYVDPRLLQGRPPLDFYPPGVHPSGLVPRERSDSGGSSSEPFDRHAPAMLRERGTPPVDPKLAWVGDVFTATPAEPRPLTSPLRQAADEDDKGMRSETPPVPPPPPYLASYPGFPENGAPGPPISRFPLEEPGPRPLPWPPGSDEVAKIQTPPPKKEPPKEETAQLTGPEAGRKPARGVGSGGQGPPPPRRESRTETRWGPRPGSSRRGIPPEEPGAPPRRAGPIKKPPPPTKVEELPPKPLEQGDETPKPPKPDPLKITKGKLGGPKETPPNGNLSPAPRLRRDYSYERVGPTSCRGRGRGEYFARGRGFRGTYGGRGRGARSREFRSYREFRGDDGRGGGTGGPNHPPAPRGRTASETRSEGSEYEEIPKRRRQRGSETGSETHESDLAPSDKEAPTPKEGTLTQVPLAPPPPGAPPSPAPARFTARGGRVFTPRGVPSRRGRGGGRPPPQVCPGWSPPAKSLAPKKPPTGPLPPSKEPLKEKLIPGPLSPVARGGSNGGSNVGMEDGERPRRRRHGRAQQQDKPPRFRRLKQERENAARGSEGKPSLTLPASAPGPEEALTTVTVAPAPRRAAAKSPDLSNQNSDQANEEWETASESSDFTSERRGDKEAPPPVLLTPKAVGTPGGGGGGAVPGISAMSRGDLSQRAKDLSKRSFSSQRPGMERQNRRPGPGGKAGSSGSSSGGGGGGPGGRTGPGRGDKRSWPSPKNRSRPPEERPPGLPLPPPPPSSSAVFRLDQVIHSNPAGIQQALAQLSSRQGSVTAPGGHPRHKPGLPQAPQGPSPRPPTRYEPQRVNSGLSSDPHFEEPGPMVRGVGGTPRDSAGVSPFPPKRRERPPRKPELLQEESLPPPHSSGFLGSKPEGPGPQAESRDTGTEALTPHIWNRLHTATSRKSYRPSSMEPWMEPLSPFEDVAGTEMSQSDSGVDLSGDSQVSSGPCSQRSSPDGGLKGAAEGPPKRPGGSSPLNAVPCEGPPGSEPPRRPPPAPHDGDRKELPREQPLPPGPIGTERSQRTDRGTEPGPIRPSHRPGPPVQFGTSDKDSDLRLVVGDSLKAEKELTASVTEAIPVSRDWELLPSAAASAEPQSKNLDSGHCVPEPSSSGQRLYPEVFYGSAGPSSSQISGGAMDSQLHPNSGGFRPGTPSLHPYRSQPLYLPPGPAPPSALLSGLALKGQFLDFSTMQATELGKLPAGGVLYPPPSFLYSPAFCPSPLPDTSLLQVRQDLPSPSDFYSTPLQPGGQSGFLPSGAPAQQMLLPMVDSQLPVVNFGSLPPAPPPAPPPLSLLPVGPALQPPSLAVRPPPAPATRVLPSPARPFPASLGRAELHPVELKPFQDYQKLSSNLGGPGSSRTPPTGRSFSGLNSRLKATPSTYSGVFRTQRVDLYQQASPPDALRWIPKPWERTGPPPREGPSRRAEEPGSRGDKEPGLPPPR
# UniProt P31321, whole entry, looked up: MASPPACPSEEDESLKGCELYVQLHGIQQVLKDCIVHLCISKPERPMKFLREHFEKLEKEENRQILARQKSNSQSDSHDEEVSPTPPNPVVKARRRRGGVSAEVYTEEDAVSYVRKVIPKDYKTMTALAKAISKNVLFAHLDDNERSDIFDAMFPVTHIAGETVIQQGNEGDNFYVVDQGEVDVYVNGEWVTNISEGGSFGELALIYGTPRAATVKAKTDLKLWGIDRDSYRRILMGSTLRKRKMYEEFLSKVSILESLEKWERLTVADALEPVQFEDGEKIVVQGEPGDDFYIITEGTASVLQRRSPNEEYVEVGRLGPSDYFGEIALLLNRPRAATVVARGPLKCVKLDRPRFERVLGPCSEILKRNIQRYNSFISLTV
# UniProt Q96LA8, whole entry, looked up: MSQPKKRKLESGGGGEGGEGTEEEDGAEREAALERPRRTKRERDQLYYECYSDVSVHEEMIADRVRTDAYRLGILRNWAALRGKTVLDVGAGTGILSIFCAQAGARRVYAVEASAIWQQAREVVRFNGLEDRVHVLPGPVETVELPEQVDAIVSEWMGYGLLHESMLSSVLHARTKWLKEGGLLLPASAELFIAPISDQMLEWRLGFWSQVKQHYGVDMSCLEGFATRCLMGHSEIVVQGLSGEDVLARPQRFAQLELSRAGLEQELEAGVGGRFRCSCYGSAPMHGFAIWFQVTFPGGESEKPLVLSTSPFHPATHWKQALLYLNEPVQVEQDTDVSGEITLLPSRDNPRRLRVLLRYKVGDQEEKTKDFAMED
# This is one part of the list.
# Assays:
# Test in all cases: log2 fold change, soluble protein after heating vs DMSO (PISA); higher = thermal stabilisation; K562 cells, 10 uM, 30 min; active = over 0.2 and 3.5 SD of the protein, either way, in both replicates (recomputed)
# [1] = compound: NC(=O)Nc1cc(-c2cccc(F)c2)sc1C(=O)N[C@H]1CCCNC1
# How it was run: (§1)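 Quantification of soluble protein used TMTpro 16plex LC-MS/MS, with channel sums equalised. Samples were the supernatant after 21,000xg for 90 min of pooled aliquots from K562 cells (2×10^6 cells/mL) treated with 10 μM compound for 30 min, heated for 3 min over 48°C-58°C, and extracted in PBS with 0.5% NP-40 at 4°C. Values, from duplicates, describe thermal stability against control samples on a log2 fold-change scale.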
# [2] = compound: NC(=O)c1cnc(N[C@@H]2CCCC[C@@H]2N)nc1Nc1cccc(-n2nccn2)c1
# How it was run: as §1
# [3] = compound: NC1(c2ccc(-c3nc4ccn5c(=O)[nH]nc5c4cc3-c3ccccc3)cc2)CCC1
# How it was run: as §1
# [4] = compound: NCC(=O)Nc1ccc(-n2nc(C(F)(F)F)cc2-c2ccc3c(ccc4ccccc43)c2)cc1
# How it was run: as §1
# entinostat = compound: Nc1ccccc1NC(=O)c1ccc(CNC(=O)OCc2cccnc2)cc1 [entinostat]
# How it was run: as §1
# vorinostat = compound: O=C(CCCCCCC(=O)Nc1ccccc1)NO [vorinostat]
# How it was run: as §1
# citarinostat = compound: O=C(CCCCCCNC(=O)c1cnc(N(c2ccccc2)c2ccccc2Cl)nc1)NO [citarinostat]
# How it was run: as §1
# silmitasertib = compound: O=C(O)c1ccc2c(c1)nc(Nc1cccc(Cl)c1)c1ccncc12 [silmitasertib]
# How it was run: as §1
# [5] = compound: O=C1NC(=O)C(c2cnc3ccccn23)=C1c1cn2c3c(cc(F)cc13)CN(C(=O)N1CCCCC1)CC2
# How it was run: as §1
# [6] = compound: c1cc(OCCN2CCCCC2)cc(-c2n[nH]c3ccc(-c4nnc[nH]4)cc23)c1
# How it was run: as §1
Target,log2 fold change [1],log2 fold change [2],log2 fold change [3],log2 fold change [4],log2 fold change (entinostat),log2 fold change (vorinostat),log2 fold change (citarinostat),log2 fold change (silmitasertib),log2 fold change [5],log2 fold change [6]
PPP2R2D (UniProt Q66LE6),inactive: -0.063,inactive: -0.071,inactive: -0.117,inactive: -0.068,inactive: -0.026,inactive: 0.001,inactive: -0.038,inactive: -0.053,inactive: -0.355,inactive: -0.047
PPP1R14A (UniProt Q96A00),inactive: -0.051,inactive: 0.101,inactive: 0.02,inactive: 0.029,inactive: 0,inactive: 0.105,inactive: 0,inactive: -0.089,inactive: -0.014,inactive: 0.018
PPP4R2 (UniProt Q9NY27),inactive: -0.103,inactive: -0.037,inactive: -0.067,inactive: -0.017,inactive: -0.002,inactive: -0.002,inactive: 0.032,inactive: 0.016,inactive: -0.028,inactive: -0.016
PPP1R35 (UniProt Q8TAP8),inactive: 0.054,inactive: -0.004,inactive: -0.037,inactive: -0.002,inactive: -0.06,inactive: -0.089,inactive: -0.058,inactive: 0.003,inactive: 0.002,inactive: -0.001
PPP1R11 (UniProt O60927),inactive: -0.001,inactive: 0,inactive: 0.012,inactive: -0.02,inactive: -0.085,inactive: 0.01,inactive: 0.038,inactive: 0.054,inactive: -0.006,inactive: 0.001
PRPS1 (UniProt P60891),inactive: 0.035,inactive: 0.024,inactive: -0.014,inactive: 0.009,inactive: 0.004,inactive: -0.023,inactive: -0.001,inactive: -0.005,inactive: -0.008,inactive: -0.015
PPP2R5D (UniProt Q14738),inactive: 0.012,inactive: -0.004,inactive: -0.101,inactive: -0.039,inactive: 0.086,inactive: 0.129,inactive: 0.078,inactive: 0.125,inactive: -0.028,inactive: -0.061
PRRC2B (UniProt Q5JSZ5),inactive: 0.011,inactive: -0.037,inactive: -0.006,inactive: 0.053,inactive: -0.006,inactive: -0.025,inactive: -0.12,inactive: 0.04,inactive: 0.005,inactive: -0.031
PQBP1 (UniProt O60828),inactive: -0.012,inactive: 0.027,inactive: 0.027,inactive: 0.073,inactive: -0.025,inactive: -0.029,inactive: -0.01,inactive: -0.018,inactive: -0.005,inactive: -0.014
PRMT8 (UniProt Q9NR22),active: 0.403,inactive: -0.149,inactive: -0.118,inactive: -0.054,inactive: 0.21,inactive: 0.029,inactive: -0.031,inactive: -0.039,inactive: -0.057,inactive: -0.006
PRSS21 (UniProt Q9Y6M0),inactive: -0.014,inactive: 0.036,inactive: -0.033,inactive: 0.024,inactive: 0.025,inactive: -0.01,inactive: 0.054,inactive: 0.032,inactive: 0.029,inactive: -0.08
PRKCB isoform 2 (UniProt P05771),inactive: -0.052,inactive: -0.037,inactive: -0.118,inactive: -0.058,inactive: 0.045,inactive: 0.02,inactive: 0.041,inactive: 0.032,inactive: -0.051,inactive: 0.02
PRMT7 (UniProt Q9NVM4),inactive: 0.034,inactive: -0.093,inactive: -0.165,inactive: -0.021,inactive: 0.026,inactive: -0.023,inactive: -0.032,inactive: 0.067,inactive: -0.103,inactive: -0.05
PRPH isoform 2 (UniProt P41219),inactive: 0.057,inactive: -0.076,inactive: -0.135,inactive: 0.07,inactive: 0.016,inactive: -0.087,inactive: -0.044,inactive: 0.168,,inactive: -0.224
PPP1R14C (UniProt Q8TAE6),inactive: -0.185,inactive: -0.11,inactive: 0.198,inactive: 0.05,inactive: -0.196,inactive: 0.131,inactive: 0.022,inactive: -0.158,inactive: -0.217,inactive: 0.053
PRKCSH (UniProt K7ELL7),inactive: 0.025,inactive: 0.023,inactive: -0.052,inactive: -0.128,inactive: -0.106,,inactive: 0.047,inactive: 0.171,inactive: 0.034,inactive: -0.136

# As entered above:
# In log2 fold change [2], PPP1R35 (UniProt Q8TAP8) has the entry inactive: -0.004
# In log2 fold change [5], PPP1R11 (UniProt O60927) has the entry inactive: -0.006

# The listing continues.

Target,log2 fold change [1],log2 fold change [2],log2 fold change [3],log2 fold change [4],log2 fold change (entinostat),log2 fold change (vorinostat),log2 fold change (citarinostat),log2 fold change (silmitasertib),log2 fold change [5],log2 fold change [6]
PRRC2A (UniProt P48634),inactive: 0.02,inactive: 0.054,inactive: 0.182,inactive: 0.066,inactive: -0.074,inactive: -0.015,inactive: -0.081,inactive: 0.085,inactive: 0.104,inactive: -0.131
PRKAR1B (UniProt P31321),inactive: 0.001,inactive: 0.085,inactive: 0.129,inactive: 0.045,inactive: -0.015,inactive: -0.031,inactive: 0,inactive: 0.07,inactive: 0.024,inactive: -0.142
PRKCI (UniProt P41743),inactive: -0.041,inactive: -0.079,inactive: -0.108,inactive: -0.036,inactive: 0.007,inactive: 0.035,inactive: 0.031,inactive: 0.016,inactive: 0.046,inactive: -0.033
PPP3R1 (UniProt P63098),inactive: -0.039,inactive: -0.028,inactive: -0.122,inactive: -0.019,inactive: 0.018,inactive: -0.016,inactive: 0.087,inactive: 0.04,inactive: -0.056,inactive: -0.022
PPP1CC isoform 2 (UniProt P36873),inactive: -0.026,inactive: -0.012,inactive: 0.045,inactive: 0.033,inactive: 0.005,inactive: -0.022,inactive: 0.011,inactive: 0.009,inactive: -0.007,inactive: -0.071
PRRC1 (UniProt Q96M27),inactive: -0.013,inactive: 0.008,inactive: 0.01,inactive: 0.003,inactive: -0.039,inactive: -0.03,inactive: 0.038,inactive: 0.006,inactive: -0.034,inactive: -0.011
PPP3CA (UniProt Q08209),inactive: 0,inactive: 0.062,inactive: -0.203,inactive: 0.192,inactive: -0.04,inactive: 0.084,inactive: 0.019,inactive: 0.067,,inactive: -0.02
PRKCA (UniProt P17252),inactive: -0.085,inactive: -0.134,inactive: -0.181,inactive: -0.029,inactive: 0.057,inactive: 0.117,inactive: 0.028,inactive: -0.045,inactive: -0.205,inactive: -0.091
PPP2CB (UniProt P62714),inactive: -0.033,inactive: 0.027,inactive: 0.042,inactive: 0.011,inactive: -0.024,inactive: -0.047,inactive: 0.036,inactive: 0.023,inactive: -0.005,inactive: -0.01
PRKD2 isoform 3 (UniProt Q9BZL6),active: -0.515,inactive: -0.217,inactive: -0.074,inactive: 0,inactive: 0.331,inactive: 0.186,,inactive: 0.047,inactive: -0.014,
PRDX1 (UniProt Q06830),inactive: -0.011,inactive: -0.023,inactive: -0.036,inactive: -0.014,inactive: -0.009,inactive: 0.002,inactive: 0.024,inactive: -0.017,inactive: -0.047,inactive: -0.017
PRPF38B (UniProt Q5VTL8),inactive: -0.199,inactive: -0.019,inactive: 0.017,inactive: -0.203,inactive: 0.006,inactive: 0.033,inactive: 0.028,inactive: -0.246,inactive: -0.006,inactive: -0.19
PRMT6 (UniProt Q96LA8),,inactive: -0.004,inactive: -0.148,inactive: -0.003,,inactive: -0.037,inactive: 0.022,inactive: 0.072,inactive: -0.02,inactive: -0.02
PRKCSH isoform 2 (UniProt P14314),,inactive: -0.166,inactive: -0.016,inactive: -0.237,,inactive: 0.039,inactive: 0.027,inactive: 0.076,inactive: -0.182,inactive: -0.145
PPP1CC (UniProt F8W1A0),,,inactive: 0.055,,,inactive: 0.105,,inactive: 0.044,,
